Results are given in words; binding and its absence hold for the method and conditions named. In cells and extracts the contact can be indirect. Some entries that bind do so weakly or less than the wild type. For some assays here: Sequences can lack the tags named with a protein.
How the values were obtained:
Myc-LZTS2 (human) = target: T1, Myc-LZTS2 (human) (UniProt Q9BRK4); experiment: co-IP; 293T cells co-transfected with two tagged constructs (Fg, Myc), lysed 48 h after transfection, IP and immunoblot by the tags; cells of Fig. 1 treated with 25 uM MG132 for 4 h before harvest
T1 sequence: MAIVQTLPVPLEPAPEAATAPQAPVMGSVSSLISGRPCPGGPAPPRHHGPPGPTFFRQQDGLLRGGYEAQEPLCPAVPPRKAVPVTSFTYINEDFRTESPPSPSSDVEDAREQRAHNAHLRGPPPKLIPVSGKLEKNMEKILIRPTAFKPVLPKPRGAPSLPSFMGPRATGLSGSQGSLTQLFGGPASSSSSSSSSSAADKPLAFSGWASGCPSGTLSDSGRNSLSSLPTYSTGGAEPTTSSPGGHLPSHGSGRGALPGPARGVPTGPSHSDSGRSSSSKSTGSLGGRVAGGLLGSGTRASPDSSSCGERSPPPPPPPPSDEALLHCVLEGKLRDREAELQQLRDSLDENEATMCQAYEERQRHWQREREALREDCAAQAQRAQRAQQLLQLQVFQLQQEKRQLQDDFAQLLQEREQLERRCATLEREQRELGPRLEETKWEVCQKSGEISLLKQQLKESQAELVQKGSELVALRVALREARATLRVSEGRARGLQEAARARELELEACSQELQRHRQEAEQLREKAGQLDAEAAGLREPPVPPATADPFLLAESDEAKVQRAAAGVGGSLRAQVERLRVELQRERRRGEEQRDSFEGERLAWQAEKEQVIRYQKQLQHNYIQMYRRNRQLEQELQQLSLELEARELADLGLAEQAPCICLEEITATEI

By UniProt entry, the sequences of proteins in these tests, tags left out. Where a name states a change or a piece, a line headed by the entry shows the natural chain unless it says otherwise. Residues count along the entry.
UniProt O43791: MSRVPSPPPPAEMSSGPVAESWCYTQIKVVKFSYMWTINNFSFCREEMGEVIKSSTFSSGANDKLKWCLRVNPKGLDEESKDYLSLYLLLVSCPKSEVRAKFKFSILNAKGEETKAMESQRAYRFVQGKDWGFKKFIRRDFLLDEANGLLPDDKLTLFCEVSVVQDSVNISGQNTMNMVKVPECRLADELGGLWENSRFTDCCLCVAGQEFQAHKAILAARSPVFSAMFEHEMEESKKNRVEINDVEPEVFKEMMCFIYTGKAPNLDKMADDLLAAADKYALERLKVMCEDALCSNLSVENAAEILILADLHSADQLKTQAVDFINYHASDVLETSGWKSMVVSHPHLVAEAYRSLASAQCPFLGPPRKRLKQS
Fg-SPOP-MATH: residues 31-161 of O43791
UniProt Q93009: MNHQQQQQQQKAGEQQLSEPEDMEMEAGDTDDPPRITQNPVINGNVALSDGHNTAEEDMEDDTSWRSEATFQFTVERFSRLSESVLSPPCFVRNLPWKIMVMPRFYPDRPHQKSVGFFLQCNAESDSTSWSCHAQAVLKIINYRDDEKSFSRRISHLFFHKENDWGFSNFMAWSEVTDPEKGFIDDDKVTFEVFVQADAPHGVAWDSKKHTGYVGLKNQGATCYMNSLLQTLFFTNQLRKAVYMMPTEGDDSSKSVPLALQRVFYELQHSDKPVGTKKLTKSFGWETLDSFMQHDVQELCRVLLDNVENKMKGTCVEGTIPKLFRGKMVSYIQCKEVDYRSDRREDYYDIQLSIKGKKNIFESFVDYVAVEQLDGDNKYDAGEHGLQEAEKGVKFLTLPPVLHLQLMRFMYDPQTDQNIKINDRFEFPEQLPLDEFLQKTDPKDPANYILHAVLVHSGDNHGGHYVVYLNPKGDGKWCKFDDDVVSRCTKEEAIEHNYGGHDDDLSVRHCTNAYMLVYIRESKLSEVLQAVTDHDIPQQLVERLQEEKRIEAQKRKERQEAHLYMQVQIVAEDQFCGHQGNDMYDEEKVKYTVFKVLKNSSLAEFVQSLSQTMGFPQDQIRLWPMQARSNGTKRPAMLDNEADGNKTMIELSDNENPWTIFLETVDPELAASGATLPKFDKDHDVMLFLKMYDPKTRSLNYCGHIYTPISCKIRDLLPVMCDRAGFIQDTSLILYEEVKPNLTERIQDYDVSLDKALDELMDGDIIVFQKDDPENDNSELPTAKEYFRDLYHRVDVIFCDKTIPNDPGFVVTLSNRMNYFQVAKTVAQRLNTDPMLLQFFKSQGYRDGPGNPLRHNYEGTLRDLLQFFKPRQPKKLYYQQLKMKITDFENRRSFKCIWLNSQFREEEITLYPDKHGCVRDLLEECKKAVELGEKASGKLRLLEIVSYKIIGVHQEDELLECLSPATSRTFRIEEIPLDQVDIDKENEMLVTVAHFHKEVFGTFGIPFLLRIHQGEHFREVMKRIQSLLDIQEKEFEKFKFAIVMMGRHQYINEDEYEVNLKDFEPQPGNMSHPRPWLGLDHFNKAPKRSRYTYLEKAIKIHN

HA-SPOP (human) = HA-SPOP (human) (UniProt O43791); experiment: co-IP; competition: 293T cells expressing Myc-LZTS2 and one partner (SPOP or HAUSP, whole or N-terminal fragment) without or with the other partner co-expressed
Fg-HAUSP (human) [1] = target: Fg-HAUSP (human) (UniProt Q93009); experiment: as above
Fg-HAUSP (human) [2] = target: Fg-HAUSP (human) (UniProt Q93009); experiment: co-IP; 293T cells co-transfected with two tagged constructs (Fg, Myc), lysed 48 h after transfection, IP and immunoblot by the tags; cells of Fig. 1 treated with 25 uM MG132 for 4 h before harvest
Fg-SPOP (human) = Fg-SPOP (human) (UniProt O43791); experiment: as above
SPOP-M35L (human) = SPOP-M35L (human) (UniProt O43791); experiment: as above
Fg-HAUSP M102L (human) = Fg-HAUSP M102L (human) (UniProt Q93009); experiment: as above
Fg-SPOP A61T (human) = Fg-SPOP A61T (human) (UniProt O43791); experiment: as above
Fg-SPOP-MATH (human) = Fg-SPOP-MATH (human) (UniProt O43791); experiment: as above
Fg-SPOP S54T (human) = Fg-SPOP S54T (human) (UniProt O43791); experiment: as above
Fg-SPOP F32L (human) = Fg-SPOP F32L (human) (UniProt O43791); experiment: as above
Fg-SPOP E47K (human) = Fg-SPOP E47K (human) (UniProt O43791); experiment: as above
Fg-SPOP R121Q (human) = Fg-SPOP R121Q (human) (UniProt O43791); experiment: as above
Fg-HAUSP R93Q (human) = Fg-HAUSP R93Q (human) (UniProt Q93009); experiment: as above
Fg-SPOP M117I (human) = Fg-SPOP M117I (human) (UniProt O43791); experiment: as above
[3] = target: endogenous HAUSP (human (endogenous in HCT-116 and HT-29)) (UniProt Q93009); experiment: co-IP; endogenous proteins in HT-29 cell lysate, IP and immunoblot with antibodies to the proteins
[4] = target: endogenous SPOP (human (endogenous in HCT-116 and HT-29)) (UniProt O43791); experiment: as above
[5] = target: endogenous HAUSP (human (endogenous in HCT-116 and HT-29)) (UniProt Q93009); experiment: co-IP; endogenous proteins in HCT-116 cell lysate, IP and immunoblot with antibodies to the proteins
[6] = target: endogenous SPOP (human (endogenous in HCT-116 and HT-29)) (UniProt O43791); experiment: as above

Measured: binding

Fg-SPOP (from UniProt O43791 1-374)
binds: Myc-LZTS2 (human)

Fg-HAUSP (from UniProt Q93009 1-1102) (enzyme)
binds: Myc-LZTS2 (human)

B1: Myc-LZTS2 (protein, UniProt Q9BRK4 1-669)
chain: MAIVQTLPVPLEPAPEAATAPQAPVMGSVSSLISGRPCPGGPAPPRHHGPPGPTFFRQQDGLLRGGYEAQEPLCPAVPPRKAVPVTSFTYINEDFRTESPPSPSSDVEDAREQRAHNAHLRGPPPKLIPVSGKLEKNMEKILIRPTAFKPVLPKPRGAPSLPSFMGPRATGLSGSQGSLTQLFGGPASSSSSSSSSSAADKPLAFSGWASGCPSGTLSDSGRNSLSSLPTYSTGGAEPTTSSPGGHLPSHGSGRGALPGPARGVPTGPSHSDSGRSSSSKSTGSLGGRVAGGLLGSGTRASPDSSSCGERSPPPPPPPPSDEALLHCVLEGKLRDREAELQQLRDSLDENEATMCQAYEERQRHWQREREALREDCAAQAQRAQRAQQLLQLQVFQLQQEKRQLQDDFAQLLQEREQLERRCATLEREQRELGPRLEETKWEVCQKSGEISLLKQQLKESQAELVQKGSELVALRVALREARATLRVSEGRARGLQEAARARELELEACSQELQRHRQEAEQLREKAGQLDAEAAGLREPPVPPATADPFLLAESDEAKVQRAAAGVGGSLRAQVERLRVELQRERRRGEEQRDSFEGERLAWQAEKEQVIRYQKQLQHNYIQMYRRNRQLEQELQQLSLELEARELADLGLAEQAPCICLEEITATEI
not listed: Myc-LZTS2 (human) | [3] | [4] | [5] | [6]
binds: all other assays above

B2: endogenous LZTS2 (protein, UniProt Q9BRK4 1-669)
chain: MAIVQTLPVPLEPAPEAATAPQAPVMGSVSSLISGRPCPGGPAPPRHHGPPGPTFFRQQDGLLRGGYEAQEPLCPAVPPRKAVPVTSFTYINEDFRTESPPSPSSDVEDAREQRAHNAHLRGPPPKLIPVSGKLEKNMEKILIRPTAFKPVLPKPRGAPSLPSFMGPRATGLSGSQGSLTQLFGGPASSSSSSSSSSAADKPLAFSGWASGCPSGTLSDSGRNSLSSLPTYSTGGAEPTTSSPGGHLPSHGSGRGALPGPARGVPTGPSHSDSGRSSSSKSTGSLGGRVAGGLLGSGTRASPDSSSCGERSPPPPPPPPSDEALLHCVLEGKLRDREAELQQLRDSLDENEATMCQAYEERQRHWQREREALREDCAAQAQRAQRAQQLLQLQVFQLQQEKRQLQDDFAQLLQEREQLERRCATLEREQRELGPRLEETKWEVCQKSGEISLLKQQLKESQAELVQKGSELVALRVALREARATLRVSEGRARGLQEAARARELELEACSQELQRHRQEAEQLREKAGQLDAEAAGLREPPVPPATADPFLLAESDEAKVQRAAAGVGGSLRAQVERLRVELQRERRRGEEQRDSFEGERLAWQAEKEQVIRYQKQLQHNYIQMYRRNRQLEQELQQLSLELEARELADLGLAEQAPCICLEEITATEI
binds: [3] | [4] | [5] | [6]

— PMC12848046
